Test results published in patent US20150328214A1.
These are yes or no findings as the source states them, for the method shown. Some entries that bind do so weakly or less than the wild type.

By UniProt entry, the sequences of proteins in these tests, tags left out. Residues count along the entry.
UniProt Q12834: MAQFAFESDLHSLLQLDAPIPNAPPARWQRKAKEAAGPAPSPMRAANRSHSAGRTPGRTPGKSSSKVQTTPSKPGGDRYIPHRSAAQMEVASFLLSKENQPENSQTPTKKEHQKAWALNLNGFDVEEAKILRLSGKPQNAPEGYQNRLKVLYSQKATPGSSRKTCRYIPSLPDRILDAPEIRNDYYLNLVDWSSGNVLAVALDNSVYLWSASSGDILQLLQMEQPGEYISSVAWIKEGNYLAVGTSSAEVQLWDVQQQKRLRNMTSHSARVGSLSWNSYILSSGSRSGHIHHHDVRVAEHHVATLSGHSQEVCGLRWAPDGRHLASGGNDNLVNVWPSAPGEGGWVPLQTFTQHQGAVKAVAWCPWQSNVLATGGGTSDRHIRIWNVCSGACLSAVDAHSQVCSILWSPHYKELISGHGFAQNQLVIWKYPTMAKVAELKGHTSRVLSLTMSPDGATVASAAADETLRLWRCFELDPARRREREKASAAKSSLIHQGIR
UniProt P14635, residues 1-88: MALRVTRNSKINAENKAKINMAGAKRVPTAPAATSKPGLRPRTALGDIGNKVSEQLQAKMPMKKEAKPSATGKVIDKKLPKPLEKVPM

Target: human Cdc20 (human) (UniProt Q12834)
Assay: competition with binding of in vitro-translated human Cdc20 to apcin-A (small molecule) resin; western blot

Q: With “HA-tagged human cyclin B1 N-terminal fragment (residues 1-88) (from UniProt P14635 1-88)” as the substance, how does the binding read?
A: The binding was “binds”.
